# US10105442B2, “Treatment of diabetes type 1 using GLP-1 and anti-IL-21” (Novo Nordisk A/S, priority 2014, dated 2018)
# For at least one compound, name, drawing or mass did not settle the structure.
# Columns and labels:
# [1] = system: recent-onset NOD mouse model; test: Liraglutide in combination with Anti-IL-21 in the NOD model, confirmation study (Example 4); assay type: in vivo
# Method: (§1) The recent-onset NOD mouse model was used. Mice were screened twice weekly and diabetes onset was defined as 2 consecutive blood glucose values of >250 mg/dL. Mice were enrolled into the experiment starting at 11 weeks of age and continued to be enrolled through 26 weeks of age. Dosing was weight based.
# (§2) Blood glucose was measured by using a blood glucose meter (Bayer Contour USB) with the corresponding blood glucose strips. Mice with a blood glucose level>250 mg/dL on two consecutive days were considered diabetic. […] If the measurement was again >250 mg/dL, the animal was recorded as diabetic, enrolled into a treatment group, and was monitored further until it reached two consecutive readings of >600 mg/dL. At this time the mouse was sacrificed. Mice were also sacrificed before they reached a blood glucose value of >600 mg/dL if their overall condition was deteriorating, as determined by weight and/or overall appearance.
# (§3) Anti-IL-21 was administered i.p. five times twice weekly starting immediately after inclusion of mice, i.e. from Day 0. […] Mouse surrogate anti-IL-21 is an mIgG1/kappa isotype with the VL amino acid sequence: […] […] […] (SEQ ID NO:26), and the VH amino acid sequence: […] […] […] (SEQ ID NO:27). […] Before use, anti-IL-21 was diluted in buffer (20 mM phosphate, 150 mM NaCl, pH=7.4). Aliquots of anti-IL-21 for injection into the animals were only thawed once.
# [2] = system: recent-onset NOD mouse model; test: Determination of blood glucose effect in recent-onset NOD model (Assay V; Examples 1-3); assay type: in vivo
# Method: Assay (V): Determination of Blood Glucose Effect in NOD Model
# The purpose of this experiment was to determine the effect of administration of a GLP-1 agonist, such as the GLP-1 peptide, and/or an inhibitor of IL-21 function on blood glucose.
# as §1, §2
# The mouse surrogate anti-IL-21 antibody was prepared by immunization of 6 to 8 week old BALB/c mice by s.c. injection with recombinant mouse IL-21 in a mixture of adjuvants. […] (SEQ ID No 13).
# as §3
# Enrolment of mice of as described in Example 1 was continued adding 9, 8, 8 and 8 subjects to the treatment groups 1 to 4, respectively.
# [3] = system: pancreatic tissue (islets, insulitis) of NOD mice; test: Histological examination of pancreatic tissue of NOD mice (H&E, CD8/CD4 and insulin staining); assay type: in vivo, mouse; conditions: subset of mice from each group
# Method: Histological examination: The histological analyses were performed on pancreatic tissue from a subset of mice from each group. Sections were stained with Hematoxylin and eosin (H&E) to assess insulitis and immunofluorescent staining with either CD8 and insulin or CD4 and insulin to assess insulitis and also characterize cell types within infiltrates.
smiles,measurement,setting,value
"CCCCCCCCCCCCCCCC(=O)N[C@@H](CCC(=O)NCCCC[C@H](NC(=O)[C@H](C)NC(=O)[C@H](C)NC(=O)[C@H](CCC(N)=O)NC(=O)CNC(=O)[C@H](CCC(=O)O)NC(=O)[C@H](CC(C)C)NC(=O)[C@H](Cc1ccc(O)cc1)NC(=O)[C@H](CO)NC(=O)[C@H](CO)NC(=O)[C@@H](NC(=O)[C@H](CC(=O)O)NC(=O)[C@H](CO)NC(=O)[C@@H](NC(=O)[C@H](Cc1ccccc1)NC(=O)[C@@H](NC(=O)CNC(=O)[C@H](CCC(=O)O)NC(=O)[C@H](C)NC(=O)[C@@H](N)Cc1cnc[nH]1)[C@@H](C)O)[C@@H](C)O)C(C)C)C(=O)N[C@@H](CCC(=O)O)C(=O)N[C@@H](Cc1ccccc1)C(=O)N[C@H](C(=O)N[C@@H](C)C(=O)N[C@@H](Cc1c[nH]c2ccccc12)C(=O)N[C@@H](CC(C)C)C(=O)N[C@H](C(=O)N[C@@H](CCCNC(=N)N)C(=O)NCC(=O)N[C@@H](CCCNC(=N)N)C(=O)NCC(=O)O)C(C)C)[C@@H](C)CC)C(=O)O [Liraglutide, liraglutide, reference compound]",Effect on diabetes progression (in words),[1],little effect
same,Mice becoming terminally hyperglycaemic before the end of the liraglutide treatment period,[1],60%
same,Remaining mice becoming terminally hyperglycaemic shortly after the liraglutide treatment period,[1],40%
same,Survival through 70 days post onset of hyperglycaemia,[1],0%
same,Blood glucose values in the first days of dosing (in words),"[2]; Example 1, NOD mice",significant yet temporary drop
same,Effect on hyperglycemia (in words),"[2]; Example 1, NOD mice, 70 days",does not affect progression to terminal hyperglycemia
same,Mice in which diabetes was reversed (BGV lowered to below 250 mg/dL),"[2]; Examples 1 and 2 compiled, FIG. 5A, 35 days period",only few
same,Animals that did not become terminally hyperglycaemic by day 70,"[2]; Examples 1 and 2 compiled, FIG. 5B",0
same,Number of mice surviving / remaining viable throughout the study period of 70 days (in words),"[2]; Examples 1 and 2 compiled, FIGS. 3 and 4",very small
same,Cellular infiltration of pancreas (in words),[3],heavy cellular infiltration
same,Visible islets in pancreas (in words),[3],few visible islets remaining
